PubChem BioAssay AID1259405, NCATS | 2018
Test: 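Mouse-designed siRNAs used to find CHO productivity engineering targets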 (primary screen). System: Chinese hamster CHO-K1 ovary cells with stable secreted eGFP expression. Knock-down reagent: single siRNA against mouse genes, 0.8 pmol siRNA per well (2 µl of 400 nM stock). Timing: 3 days. Measurement: 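Percent of the per-plate non-targeting control median for intracellular GFP per well by laser scanning cytometry and for cell viability by ATP luminescence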. Direction: GFP, % of control: higher = more GFP per well, higher productivity; viability (ATP), % of control: higher = more viable cells (more ATP). Hit rule: 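Called active when intracellular GFP, relative to negative control, is at or above 120%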.
This is a random part of about 50,000 reagents tested. Over the whole deposit, about 4,000 (8%) were called active. 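Mouse siRNA library applied to hamster cells; one well for each siRNA.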 The numbers tell different reagents against one gene apart. No sequences are given here.

For Zfp354a (zinc finger protein 354A) #1 the deposit lists GFP, % of control 89.3; viability (ATP), % of control 99.5; inactive.
With knock-down of Zfp354a (zinc finger protein 354A) #2 the results were GFP, % of control 71.3; viability (ATP), % of control 81.2; inactive.
Zfp354a (zinc finger protein 354A) #3 showed GFP, % of control 88.9; viability (ATP), % of control 82; inactive.
Against Cltc (clathrin heavy chain) #1, the values are GFP, % of control 95.3; viability (ATP), % of control 114; inactive.
Cltc (clathrin heavy chain) #2 showed GFP, % of control 69.8; viability (ATP), % of control 63.3; inactive.
After knock-down of Eif4e2 (eukaryotic translation initiation factor 4E member 2) #1, the screen gave GFP, % of control 88.9; viability (ATP), % of control 117; inactive.
Eif4e2 (eukaryotic translation initiation factor 4E member 2) #2 showed GFP, % of control 104; viability (ATP), % of control 96.6; inactive.
Against Eif4e2 (eukaryotic translation initiation factor 4E member 2) #3, the entry reads GFP, % of control 72.8; viability (ATP), % of control 63.7; inactive.
Depletion of Herc2 (HECT and RLD domain containing E3 ubiquitin protein ligase 2) #1 gave: GFP, % of control 76.9; viability (ATP), % of control 37; inactive.
With knock-down of Herc2 (HECT and RLD domain containing E3 ubiquitin protein ligase 2) #2 the results were GFP, % of control 128; viability (ATP), % of control 85.1; active.
Silencing of Herc2 (HECT and RLD domain containing E3 ubiquitin protein ligase 2) #3 resulted in: GFP, % of control 66.1; viability (ATP), % of control 83.2; inactive.

Hits, among the entries above:
Herc2 (HECT and RLD domain containing E3 ubiquitin protein ligase 2) #2 → GFP, % of control = 128; viability (ATP), % of control = 85.1; Call = active

Additional results follow.
Depletion of Celf5 (CUGBP, Elav-like family member 5) #1 came out at: GFP, % of control 86.5; viability (ATP), % of control 92.5; inactive.
For Celf5 (CUGBP, Elav-like family member 5) #2, the entry reads GFP, % of control 144; viability (ATP), % of control 61.5; active.
Depletion of Celf5 (CUGBP, Elav-like family member 5) #3 resulted in: GFP, % of control 51.4; viability (ATP), % of control 78.8; inactive.
For Arhgap29 (Rho GTPase activating protein 29) #1, the values are GFP, % of control 116; viability (ATP), % of control 100; inactive.
Arhgap29 (Rho GTPase activating protein 29) #2 scored GFP, % of control 102; viability (ATP), % of control 100; inactive.
Rpl23a (ribosomal protein L23A) #1 showed GFP, % of control 57.7; viability (ATP), % of control 35.1; inactive.
Rpl23a (ribosomal protein L23A) #2 showed GFP, % of control 53.1; viability (ATP), % of control 95.8; inactive.
Rpl23a (ribosomal protein L23A) #3 gave GFP, % of control 82.1; viability (ATP), % of control 73.7; inactive.
Against Or2j3 (olfactory receptor family 2 subfamily J member 3) #1 the deposit lists GFP, % of control 88; viability (ATP), % of control 75.9; inactive.
With knock-down of Or2j3 (olfactory receptor family 2 subfamily J member 3) #2, the screen gave GFP, % of control 45.5; viability (ATP), % of control 62.2; inactive.
Knock-down of Or2j3 (olfactory receptor family 2 subfamily J member 3) #3 came out at: GFP, % of control 44.2; viability (ATP), % of control 65.8; inactive.
Tnfaip1 (tumor necrosis factor, alpha-induced protein 1 (endothelial)) #1 showed GFP, % of control 132; viability (ATP), % of control 67.6; active.
After knock-down of Tnfaip1 (tumor necrosis factor, alpha-induced protein 1 (endothelial)) #2, the screen gave GFP, % of control 56.6; viability (ATP), % of control 70.6; inactive.
After knock-down of Tnfaip1 (tumor necrosis factor, alpha-induced protein 1 (endothelial)) #3 the results were GFP, % of control 47.2; viability (ATP), % of control 41.4; inactive.
Knock-down of Idh3g (isocitrate dehydrogenase 3 (NAD+), gamma) #1 gave: GFP, % of control 82.3; viability (ATP), % of control 68.2; inactive.
After knock-down of Idh3g (isocitrate dehydrogenase 3 (NAD+), gamma) #2, the record shows GFP, % of control 62.3; viability (ATP), % of control 64.1; inactive.
Idh3g (isocitrate dehydrogenase 3 (NAD+), gamma) #3 gave GFP, % of control 112; viability (ATP), % of control 94.6; inactive.
